Results reported in PMC6554275.
No constants are given. Whether binding was seen depends on the method and setting. Binding seen in cells or lysates may run through a third protein. Some binding calls cover weakened binding; strength is not graded here. Tags and fused reporters may be left off the sequences shown.

T1: wild-type human myc-tagged SFRP3 (human) (UniProt Q92765)
T1 sequence: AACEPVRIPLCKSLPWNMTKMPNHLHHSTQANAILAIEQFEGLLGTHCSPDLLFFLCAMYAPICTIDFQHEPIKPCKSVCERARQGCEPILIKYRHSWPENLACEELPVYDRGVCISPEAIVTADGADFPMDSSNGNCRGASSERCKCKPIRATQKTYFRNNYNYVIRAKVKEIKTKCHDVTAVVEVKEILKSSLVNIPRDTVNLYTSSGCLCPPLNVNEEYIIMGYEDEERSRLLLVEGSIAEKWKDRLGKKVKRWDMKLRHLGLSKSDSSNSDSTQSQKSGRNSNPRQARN

B1: Active Wnt2-V5 (ligand, UniProt P09544 26-360)
chain: SWWYMRATGGSSRVMCDNVPGLVSSQRQLCHRHPDVMRAISQGVAEWTAECQHQFRQHRWNCNTLDRDHSLFGRVLLRSSRESAFVYAISSAGVVFAITRACSQGEVKSCSCDPKKMGSAKDSKGIFDWGGCSDNIDYGIKFARAFVDAKERKGKDARALMNLHNNRAGRKAVKRFLKQECKCHGVSGSCTLRTCWLAMADFRKTGDYLWRKYNGAIQVVMNQDGTGFTVANERFKKPTKNDLVYFENSPDYCIRDREAGSLGTAGRVCNLTSRGMDSCEVMCCGRGYDTSHVTRMTKCGCKFHWCCAVRCQDCLEALDVHTCKAPKNADWTTAT
B2: Active Wnt5a-V5 (ligand, UniProt P41221 62-380)
chain: IIGAQPLCSQLAGLSQGQKKLCHLYQDHMQYIGEGAKTGIKECQYQFRHRRWNCSTVDNTSVFGRVMQIGSRETAFTYAVSAAGVVNAMSRACREGELSTCGCSRAARPKDLPRDWLWGGCGDNIDYGYRFAKEFVDARERERIHAKGSYESARILMNLHNNEAGRRTVYNLADVACKCHGVSGSCSLKTCWLQLADFRKVGDALKEKYDSAAAMRLNSRGKLVQVNSRFNSPTTQDLVYIDPSPDYCVRNESTGSLGTQGRLCNKTSEGMDGCELMCCGRGYDQFKTVQTERCHCKFHWCCYVKCKKCTEIVDQFVCK

Molecular target: T1, wild-type human myc-tagged SFRP3 (human)
Assay: co-IP; HEK293 cells transiently co-transfected with SFRP3-myc and V5/HA-tagged Wnt; lysis in 150 mM NaCl, 50 mM Tris pH 8, 1% NP40; anti-myc conjugated beads 2 h at 4 °C; blots with anti-myc, anti-V5, anti-HA

Binder	binding
B1	binds
B2	binds
